# Experimental data as given in the supplement of paper PMC4604168 (melanoma cell lines).
# This is one part of the list. Repeats are few or missing, and single values can be far off.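 Imaging used 1,536-well plates; nuclei positive for cleaved PARP by antibody were divided by total DNA-stained nuclei to yield the apoptosis fraction. Doses for screening kept most cells viable, and cell lines differ markedly in resting and induced cleaved-PARP levels.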
# Columns and labels:
# Assay in all cases: cleaved PARP positive nuclei fraction relative to DMSO control; melanoma cells; higher = more apoptosis
# Settings in all cases: library dose: low library concentration; 72 h
# [1] = tested on: WM115
# [2] = tested on: WM1716
# [3] = tested on: WM1745
# [4] = tested on: WM3526
# [5] = tested on: WM3619
# [6] = tested on: WM451Lu
Structure (SMILES),cleaved PARP positive nuclei fraction [1],cleaved PARP positive nuclei fraction [2],cleaved PARP positive nuclei fraction [3],cleaved PARP positive nuclei fraction [4],cleaved PARP positive nuclei fraction [5],cleaved PARP positive nuclei fraction [6]
"Cc1ccc(Nc2nccc(N(C)c3ccc4c(C)n(C)nc4c3)n2)cc1S(N)(=O)=O [Pazopanib] + CNC(=O)c1cc(Oc2ccc(NC(=O)Nc3ccc(Cl)c(C(F)(F)F)c3)cc2)ccn1 [sorafenib] (first compound 0.4 µM, partner dose 0.4 µM)",118%,86.8%,105%,246%,112%,81.4%
"Cc1cc(Nc2cc(N3CCN(C)CC3)nc(Sc3ccc(NC(=O)C4CC4)cc3)n2)n[nH]1 [Tozasertib] + N#CC[C@H](C1CCCC1)n1cc(-c2ncnc3[nH]ccc23)cn1 [ruxolitinib] (first compound 0.006 µM, partner dose 1 µM)",185%,61.3%,100%,67.8%,101%,195%
"Cc1ccc(Nc2nccc(N(C)c3ccc4c(C)n(C)nc4c3)n2)cc1S(N)(=O)=O [Pazopanib] + Cn1cc(/C=C2\C(=O)Nc3cccnc32)c2ccccc21 [GW441756] (first compound 0.4 µM, partner dose 0.4 µM)",68.7%,51.7%,88.8%,78.1%,110%,36.5%
"O=c1[nH]nc(Sc2ncc([N+](=O)[O-])s2)n1-c1ccc2c(c1)OCCO2 + Cc1cc(Nc2cc(N3CCN(C)CC3)nc(/C=C/c3ccccc3)n2)n[nH]1 [ENMD2076] (first compound 0.2 µM, partner dose 0.04 µM)",120%,39.2%,94.6%,34%,69.6%,83.5%
"O=C(/C=C/c1cccnc1)NCCCCC1CCN(C(=O)c2ccccc2)CC1 + NC(=O)Nc1cc(-c2cccc(F)c2)sc1C(=O)N[C@H]1CCCNC1 [AZD7762] (first compound 0.01 µM, partner dose 0.02 µM)",273%,63%,107%,221%,199%,50.1%
"N#CC[C@H](C1CCCC1)n1cc(-c2ncnc3[nH]ccc23)cn1 [ruxolitinib] + CS(=O)(=O)c1ccc(C(=O)Nc2ccc(Cl)c(-c3ccccn3)c2)c(Cl)c1 [vismodegib] (first compound 1 µM, partner dose 1 µM)",148%,40.7%,87.5%,214%,120%,133%
"CCCCCCCCCCCCCCCCCCOP(=O)([O-])OC1CC[N+](C)(C)CC1 [Perifosine] + COc1ccc(Cl)c(Nc2nc3ccccc3nc2NS(=O)(=O)c2cccc(NC(=O)C(C)(C)N)c2)c1 [XL147] (first compound 0.4 µM, partner dose 0.8 µM)",50.4%,40.9%,95.4%,25.8%,98.4%,173%
"N#CC[C@H](C1CCCC1)n1cc(-c2ncnc3[nH]ccc23)cn1 [ruxolitinib] + CC(C)(C)c1cnc(CSc2cnc(NC(=O)C3CCNCC3)s2)o1 [SNS-032] (first compound 1 µM, partner dose 0.01 µM)",118%,59.3%,113%,62%,75.9%,39.8%
"Cc1ccc(Nc2nccc(N(C)c3ccc4c(C)n(C)nc4c3)n2)cc1S(N)(=O)=O [Pazopanib] + C=CCn1c(=O)c2cnc(Nc3ccc(N4CCN(C)CC4)cc3)nc2n1-c1cccc(C(C)(C)O)n1 [MK1775] (first compound 0.4 µM, partner dose 0.02 µM)",253%,61.3%,101%,72.3%,115%,262%
"Cc1cn(-c2cc(NC(=O)c3ccc(C)c(Nc4nccc(-c5cccnc5)n4)c3)cc(C(F)(F)F)c2)cn1 [nilotinib] + CN(C)S(=O)(=O)c1ccc2c(c1)/C(=C/c1cc3c([nH]1)CCCC3)C(=O)N2 [SU6656] (first compound 0.2 µM, partner dose 0.4 µM)",69.3%,84.6%,97.3%,56.2%,90.1%,195%
"CCCCCCCCCCCCCCCCCCOP(=O)([O-])OC1CC[N+](C)(C)CC1 [Perifosine] + Cc1cn(-c2cc(NC(=O)c3ccc(C)c(Nc4nccc(-c5cccnc5)n4)c3)cc(C(F)(F)F)c2)cn1 [nilotinib] (first compound 0.4 µM, partner dose 0.2 µM)",74.3%,28.6%,123%,30.3%,92.4%,99.4%
"CCCCCCCCCCCCCCCCCCOP(=O)([O-])OC1CC[N+](C)(C)CC1 [Perifosine] + O=C(O)[C@@H]1[O][Sb](=[O])([O][Sb]2(=[O])[O][C@H]([C@H](O)CO)[C@H](O)[C@H](C(=O)O)[O]2)[O][C@H]([C@H](O)CO)[C@@H]1O [stibogluconate] (first compound 0.4 µM, partner dose 2 µM)",175%,69.2%,97.4%,183%,92.5%,165%
"COc1cc([C@@H]2c3cc4c(cc3[C@@H](O[C@@H]3O[C@@H]5CO[C@@H](C)O[C@H]5[C@H](O)[C@H]3O)[C@H]3COC(=O)[C@H]23)OCO4)cc(OC)c1O [etoposide] + Clc1ccc(Nc2nnc(Cc3ccncc3)c3ccccc23)cc1 [vatalanib] (first compound 0.02 µM, partner dose 2 µM)",98.7%,41.9%,89.6%,258%,183%,66.4%
"CCCCCCCCCCCCCCCCCCOP(=O)([O-])OC1CC[N+](C)(C)CC1 [Perifosine] + Cn1nnc2c(C(N)=O)ncn2c1=O [temozolomide] (first compound 0.4 µM, partner dose 2 µM)",24.3%,39%,81.6%,40.8%,95.5%,93.6%
"Cc1cc(Nc2cc(N3CCN(C)CC3)nc(Sc3ccc(NC(=O)C4CC4)cc3)n2)n[nH]1 [Tozasertib] + COc1ccc2c(c1)CCC1C2CCC2(C)C(NCCCCCCN3C(=O)C=CC3=O)CCC12 [U73122] (first compound 0.006 µM, partner dose 0.4 µM)",242%,44.2%,95.9%,83%,81.4%,49.9%

# 4 successive entries from above:
Structure (SMILES),cleaved PARP positive nuclei fraction [1],cleaved PARP positive nuclei fraction [2],cleaved PARP positive nuclei fraction [3],cleaved PARP positive nuclei fraction [4],cleaved PARP positive nuclei fraction [5],cleaved PARP positive nuclei fraction [6]
"CCCCCCCCCCCCCCCCCCOP(=O)([O-])OC1CC[N+](C)(C)CC1 [Perifosine] + Cc1cn(-c2cc(NC(=O)c3ccc(C)c(Nc4nccc(-c5cccnc5)n4)c3)cc(C(F)(F)F)c2)cn1 [nilotinib] (first compound 0.4 µM, partner dose 0.2 µM)",74.3%,28.6%,123%,30.3%,92.4%,99.4%
"CCCCCCCCCCCCCCCCCCOP(=O)([O-])OC1CC[N+](C)(C)CC1 [Perifosine] + O=C(O)[C@@H]1[O][Sb](=[O])([O][Sb]2(=[O])[O][C@H]([C@H](O)CO)[C@H](O)[C@H](C(=O)O)[O]2)[O][C@H]([C@H](O)CO)[C@@H]1O [stibogluconate] (first compound 0.4 µM, partner dose 2 µM)",175%,69.2%,97.4%,183%,92.5%,165%
"COc1cc([C@@H]2c3cc4c(cc3[C@@H](O[C@@H]3O[C@@H]5CO[C@@H](C)O[C@H]5[C@H](O)[C@H]3O)[C@H]3COC(=O)[C@H]23)OCO4)cc(OC)c1O [etoposide] + Clc1ccc(Nc2nnc(Cc3ccncc3)c3ccccc23)cc1 [vatalanib] (first compound 0.02 µM, partner dose 2 µM)",98.7%,41.9%,89.6%,258%,183%,66.4%
"CCCCCCCCCCCCCCCCCCOP(=O)([O-])OC1CC[N+](C)(C)CC1 [Perifosine] + Cn1nnc2c(C(N)=O)ncn2c1=O [temozolomide] (first compound 0.4 µM, partner dose 2 µM)",24.3%,39%,81.6%,40.8%,95.5%,93.6%
